No constants are given. Whether binding was seen depends on the method and setting. Binding seen in cells or lysates may run through a third protein. Some entries that bind do so weakly or less than the wild type. Blank lines part the entries; values can stand above or below the molecule they belong to.
Experiments:
[1] = target: T1, HNRNPM (human (endogenous in MCF7)) (UniProt P52272); assay: proximity ligation; in situ PLA (Duolink In Situ Red Starter Kit Mouse/Rabbit) on PFA-fixed, permeabilised cells; RCPs per cell; treatments: TGF-β1 48 h (HaCaT), siPDIA3 72 h (HaCaT), PDGF-BB 15 min (BJ-hTERT)
T1 sequence: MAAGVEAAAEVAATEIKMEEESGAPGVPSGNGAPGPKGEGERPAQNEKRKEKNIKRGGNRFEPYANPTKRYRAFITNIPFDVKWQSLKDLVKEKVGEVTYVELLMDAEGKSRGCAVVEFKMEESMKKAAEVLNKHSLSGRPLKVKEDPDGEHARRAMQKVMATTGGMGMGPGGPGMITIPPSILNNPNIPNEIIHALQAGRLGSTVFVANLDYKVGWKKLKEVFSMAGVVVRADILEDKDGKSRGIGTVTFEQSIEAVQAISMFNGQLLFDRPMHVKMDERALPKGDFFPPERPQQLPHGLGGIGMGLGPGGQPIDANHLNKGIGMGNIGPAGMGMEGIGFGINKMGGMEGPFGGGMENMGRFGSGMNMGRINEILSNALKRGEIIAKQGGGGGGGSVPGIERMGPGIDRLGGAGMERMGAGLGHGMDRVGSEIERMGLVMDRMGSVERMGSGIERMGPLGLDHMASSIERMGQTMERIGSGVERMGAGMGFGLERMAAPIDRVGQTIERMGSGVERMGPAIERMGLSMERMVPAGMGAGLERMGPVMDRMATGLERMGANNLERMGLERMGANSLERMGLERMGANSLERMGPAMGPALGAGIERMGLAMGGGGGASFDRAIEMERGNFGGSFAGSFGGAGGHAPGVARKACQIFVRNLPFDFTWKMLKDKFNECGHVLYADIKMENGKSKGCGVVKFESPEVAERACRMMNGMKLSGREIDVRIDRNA

Amino acid sequences for entries named in this document (tags omitted).
UniProt Q13547: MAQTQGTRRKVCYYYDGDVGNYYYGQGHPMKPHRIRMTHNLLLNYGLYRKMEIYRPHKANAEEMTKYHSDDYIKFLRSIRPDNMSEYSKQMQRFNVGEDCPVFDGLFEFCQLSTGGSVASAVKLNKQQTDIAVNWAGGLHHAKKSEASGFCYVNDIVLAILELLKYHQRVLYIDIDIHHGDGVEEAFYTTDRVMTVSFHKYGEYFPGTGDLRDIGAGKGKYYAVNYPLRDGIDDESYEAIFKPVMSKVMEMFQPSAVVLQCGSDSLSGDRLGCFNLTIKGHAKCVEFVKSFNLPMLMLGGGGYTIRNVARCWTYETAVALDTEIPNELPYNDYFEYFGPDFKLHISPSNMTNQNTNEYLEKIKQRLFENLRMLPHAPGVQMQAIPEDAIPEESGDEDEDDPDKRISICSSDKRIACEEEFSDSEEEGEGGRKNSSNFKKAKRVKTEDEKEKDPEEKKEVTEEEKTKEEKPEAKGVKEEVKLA
UniProt P35637: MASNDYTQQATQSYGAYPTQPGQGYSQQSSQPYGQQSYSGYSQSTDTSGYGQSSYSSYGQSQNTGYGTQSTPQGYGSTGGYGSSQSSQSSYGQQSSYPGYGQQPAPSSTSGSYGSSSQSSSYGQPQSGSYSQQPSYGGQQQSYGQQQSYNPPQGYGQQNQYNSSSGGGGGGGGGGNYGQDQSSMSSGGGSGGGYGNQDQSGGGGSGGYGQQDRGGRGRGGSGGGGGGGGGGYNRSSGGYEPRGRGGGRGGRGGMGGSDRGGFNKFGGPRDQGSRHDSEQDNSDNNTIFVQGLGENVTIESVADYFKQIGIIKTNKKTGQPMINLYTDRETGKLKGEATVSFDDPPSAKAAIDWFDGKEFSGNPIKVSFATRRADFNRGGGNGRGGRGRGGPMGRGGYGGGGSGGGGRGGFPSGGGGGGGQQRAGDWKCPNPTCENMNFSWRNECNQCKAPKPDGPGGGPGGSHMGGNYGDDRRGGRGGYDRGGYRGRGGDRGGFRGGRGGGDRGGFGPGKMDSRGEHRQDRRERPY

[2] = target: T1, HNRNPM (human (endogenous in MCF7)); assay: MolBoolean (proximity assay with antibody-DNA conjugates); PFA-fixed, permeabilised cells (MCF7, HaCaT, AGS clones, BJ-hTERT); mouse and rabbit primary antibodies, secondary proximity probes A and B; dual-coloured RCPs counted as complex, single-coloured as free protein; treatments: TGF-β1 48 h (HaCaT), siPDIA3 72 h (HaCaT), PDGF-BB 15 min (BJ-hTERT)
[3] = target: calreticulin (human (endogenous in HaCaT)) (UniProt P27797); assay: proximity ligation; in situ PLA (Duolink In Situ Red Starter Kit Mouse/Rabbit) on PFA-fixed, permeabilised cells; RCPs per cell; treatments: TGF-β1 48 h (HaCaT), siPDIA3 72 h (HaCaT), PDGF-BB 15 min (BJ-hTERT)
[4] = target: calreticulin (human (endogenous in HaCaT)) (UniProt P27797); assay: MolBoolean (proximity assay with antibody-DNA conjugates); PFA-fixed, permeabilised cells (MCF7, HaCaT, AGS clones, BJ-hTERT); mouse and rabbit primary antibodies, secondary proximity probes A and B; dual-coloured RCPs counted as complex, single-coloured as free protein; treatments: TGF-β1 48 h (HaCaT), siPDIA3 72 h (HaCaT), PDGF-BB 15 min (BJ-hTERT)
[5] = target: HDAC1 (human (endogenous in FFPE colon tissue)) (UniProt Q13547); assay: proximity ligation; in situ PLA (Duolink) on deparaffinised FFPE human tissue sections after antigen retrieval
[6] = target: HDAC1 (human (endogenous in FFPE colon tissue)) (UniProt Q13547); assay: MolBoolean (proximity assay with antibody-DNA conjugates); FFPE human tissue sections after deparaffinisation and antigen retrieval; secondary proximity probes; percentage of RCPs in each category per frame

binding [1]: binds
binding [2]: binds
Molecule: FUS (from UniProt P35637 1-526)

binding [3]: binds
binding [4]: binds
Molecule: PDIA3 (from UniProt P30101 25-505)

binding [5]: binds
binding [6]: binds
B1: SATB2 (protein, UniProt Q9UPW6 1-733)
chain: MERRSESPCLRDSPDRRSGSPDVKGPPPVKVARLEQNGSPMGARGRPNGAVAKAVGGLMIPVFCVVEQLDGSLEYDNREEHAEFVLVRKDVLFSQLVETALLALGYSHSSAAQAQGIIKLGRWNPLPLSYVTDAPDATVADMLQDVYHVVTLKIQLQSCSKLEDLPAEQWNHATVRNALKELLKEMNQSTLAKECPLSQSMISSIVNSTYYANVSATKCQEFGRWYKKYKKIKVERVERENLSDYCVLGQRPMHLPNMNQLASLGKTNEQSPHSQIHHSTPIRNQVPALQPIMSPGLLSPQLSPQLVRQQIAMAHLINQQIAVSRLLAHQHPQAINQQFLNHPPIPRAVKPEPTNSSVEVSPDIYQQVRDELKRASVSQAVFARVAFNRTQGLLSEILRKEEDPRTASQSLLVNLRAMQNFLNLPEVERDRIYQDERERSMNPNVSMVSSASSSPSSSRTPQAKTSTPTTDLPIKVDGANINITAAIYDEIQQEMKRAKVSQALFAKVAANKSQGWLCELLRWKENPSPENRTLWENLCTIRRFLNLPQHERDVIYEEESRHHHSERMQHVVQLPPEPVQVLHRQQSQPAKESSPPREEAPPPPPPTEDSCAKKPRSRTKISLEALGILQSFIHDVGLYPDQEAIHTLSAQLDLPKHTIIKFFQNQRYHVKHHGKLKEHLGSAVDVAEYKDEELLTESEENDSEEGSEEMYKVEAEEENADKSKAAPAEIDQR
